# Experimental data taken from the supplement of paper PMC10849652.
# Amino acid sequences for entries named in this document (tags omitted). A change or cut given only in a name is not applied to a line headed by its entry.
# UniProt Q15165: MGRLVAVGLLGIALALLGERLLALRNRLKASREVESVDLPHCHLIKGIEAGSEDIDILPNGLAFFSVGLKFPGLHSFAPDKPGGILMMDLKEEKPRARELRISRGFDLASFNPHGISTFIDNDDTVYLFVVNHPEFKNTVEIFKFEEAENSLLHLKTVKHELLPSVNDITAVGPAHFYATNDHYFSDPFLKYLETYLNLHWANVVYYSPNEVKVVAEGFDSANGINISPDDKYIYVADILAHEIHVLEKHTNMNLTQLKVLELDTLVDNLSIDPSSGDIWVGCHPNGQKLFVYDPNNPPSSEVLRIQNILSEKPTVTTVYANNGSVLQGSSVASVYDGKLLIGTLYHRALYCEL
# UniProt Q6P1K2: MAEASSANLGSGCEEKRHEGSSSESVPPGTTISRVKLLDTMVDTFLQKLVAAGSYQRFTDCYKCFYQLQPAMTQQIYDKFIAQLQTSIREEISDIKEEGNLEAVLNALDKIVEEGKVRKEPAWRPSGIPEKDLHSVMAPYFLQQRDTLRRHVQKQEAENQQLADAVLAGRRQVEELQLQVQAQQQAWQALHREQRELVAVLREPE
# UniProt Q8IY17: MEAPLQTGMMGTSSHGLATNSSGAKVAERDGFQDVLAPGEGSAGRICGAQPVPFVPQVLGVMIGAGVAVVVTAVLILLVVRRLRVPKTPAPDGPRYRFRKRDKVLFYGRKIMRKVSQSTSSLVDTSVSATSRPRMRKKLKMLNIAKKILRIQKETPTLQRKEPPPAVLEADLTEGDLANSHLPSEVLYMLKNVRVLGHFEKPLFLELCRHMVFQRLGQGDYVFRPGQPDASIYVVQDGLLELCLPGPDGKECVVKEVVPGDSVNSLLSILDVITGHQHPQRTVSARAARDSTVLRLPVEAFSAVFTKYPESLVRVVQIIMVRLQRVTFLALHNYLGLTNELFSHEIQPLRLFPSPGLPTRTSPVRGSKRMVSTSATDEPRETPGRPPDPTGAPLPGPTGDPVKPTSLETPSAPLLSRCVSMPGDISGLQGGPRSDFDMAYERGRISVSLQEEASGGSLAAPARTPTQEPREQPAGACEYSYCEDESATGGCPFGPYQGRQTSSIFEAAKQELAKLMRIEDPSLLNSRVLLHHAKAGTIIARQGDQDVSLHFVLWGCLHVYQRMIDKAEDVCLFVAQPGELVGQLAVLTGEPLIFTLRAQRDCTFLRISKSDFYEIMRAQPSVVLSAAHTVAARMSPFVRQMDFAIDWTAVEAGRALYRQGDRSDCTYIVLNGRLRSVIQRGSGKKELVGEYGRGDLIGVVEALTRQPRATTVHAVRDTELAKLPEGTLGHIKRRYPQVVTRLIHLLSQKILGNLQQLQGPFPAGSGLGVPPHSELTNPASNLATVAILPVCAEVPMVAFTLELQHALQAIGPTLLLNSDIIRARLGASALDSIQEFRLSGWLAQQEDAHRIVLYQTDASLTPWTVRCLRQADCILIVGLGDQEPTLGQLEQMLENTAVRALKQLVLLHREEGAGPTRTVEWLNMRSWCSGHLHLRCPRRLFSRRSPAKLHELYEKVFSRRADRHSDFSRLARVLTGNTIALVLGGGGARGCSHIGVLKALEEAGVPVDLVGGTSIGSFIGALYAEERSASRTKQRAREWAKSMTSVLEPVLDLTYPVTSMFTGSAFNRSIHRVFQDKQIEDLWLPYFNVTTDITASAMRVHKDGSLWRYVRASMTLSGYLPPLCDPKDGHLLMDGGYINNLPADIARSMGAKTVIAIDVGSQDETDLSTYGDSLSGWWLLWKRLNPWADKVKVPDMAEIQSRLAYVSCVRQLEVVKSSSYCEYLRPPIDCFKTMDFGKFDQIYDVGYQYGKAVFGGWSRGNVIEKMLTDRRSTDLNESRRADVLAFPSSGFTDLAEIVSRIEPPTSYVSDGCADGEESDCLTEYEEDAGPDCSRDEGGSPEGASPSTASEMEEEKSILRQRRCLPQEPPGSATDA
# UniProt Q02809: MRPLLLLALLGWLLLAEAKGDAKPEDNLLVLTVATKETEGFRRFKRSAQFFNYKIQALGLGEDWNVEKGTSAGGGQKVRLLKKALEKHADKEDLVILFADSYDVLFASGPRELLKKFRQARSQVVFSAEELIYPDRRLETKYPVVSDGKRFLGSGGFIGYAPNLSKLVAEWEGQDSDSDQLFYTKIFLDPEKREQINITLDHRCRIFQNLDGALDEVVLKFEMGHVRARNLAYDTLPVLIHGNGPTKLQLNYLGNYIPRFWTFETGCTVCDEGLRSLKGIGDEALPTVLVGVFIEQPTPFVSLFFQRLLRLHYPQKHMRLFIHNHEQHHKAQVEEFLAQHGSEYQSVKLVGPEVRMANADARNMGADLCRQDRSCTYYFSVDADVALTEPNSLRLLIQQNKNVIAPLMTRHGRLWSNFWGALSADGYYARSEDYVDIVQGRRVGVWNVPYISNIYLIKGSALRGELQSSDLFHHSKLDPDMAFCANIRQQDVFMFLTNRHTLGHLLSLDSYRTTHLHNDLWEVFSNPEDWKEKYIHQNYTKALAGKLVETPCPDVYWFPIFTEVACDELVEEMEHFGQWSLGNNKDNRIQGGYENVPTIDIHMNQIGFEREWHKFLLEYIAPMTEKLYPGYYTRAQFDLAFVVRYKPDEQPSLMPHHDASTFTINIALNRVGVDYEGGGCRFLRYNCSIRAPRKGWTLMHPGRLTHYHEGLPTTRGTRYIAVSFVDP
# UniProt Q04941: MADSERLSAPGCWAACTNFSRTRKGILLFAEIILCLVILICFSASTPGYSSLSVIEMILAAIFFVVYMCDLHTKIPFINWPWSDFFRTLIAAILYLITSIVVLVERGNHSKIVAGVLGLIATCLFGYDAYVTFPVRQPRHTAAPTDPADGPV
# UniProt O00469: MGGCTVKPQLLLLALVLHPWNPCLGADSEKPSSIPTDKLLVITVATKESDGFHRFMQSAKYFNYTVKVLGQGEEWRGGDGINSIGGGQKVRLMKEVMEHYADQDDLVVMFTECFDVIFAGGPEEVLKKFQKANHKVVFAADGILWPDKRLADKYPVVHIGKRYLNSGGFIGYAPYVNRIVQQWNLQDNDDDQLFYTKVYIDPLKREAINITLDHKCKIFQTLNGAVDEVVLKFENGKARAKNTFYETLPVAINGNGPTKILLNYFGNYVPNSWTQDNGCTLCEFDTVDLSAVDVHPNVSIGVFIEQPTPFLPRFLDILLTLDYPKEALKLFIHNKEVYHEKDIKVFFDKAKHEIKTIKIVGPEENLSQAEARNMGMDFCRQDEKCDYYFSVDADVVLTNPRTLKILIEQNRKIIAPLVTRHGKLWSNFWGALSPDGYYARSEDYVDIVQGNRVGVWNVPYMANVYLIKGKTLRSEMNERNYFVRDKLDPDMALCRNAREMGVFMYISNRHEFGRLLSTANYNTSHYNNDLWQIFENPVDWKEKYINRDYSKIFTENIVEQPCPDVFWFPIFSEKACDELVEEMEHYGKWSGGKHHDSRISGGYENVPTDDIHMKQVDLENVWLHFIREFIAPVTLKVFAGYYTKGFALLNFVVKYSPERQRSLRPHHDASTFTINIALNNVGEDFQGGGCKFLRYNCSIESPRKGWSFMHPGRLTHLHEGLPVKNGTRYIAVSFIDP
# UniProt Q9H2U2: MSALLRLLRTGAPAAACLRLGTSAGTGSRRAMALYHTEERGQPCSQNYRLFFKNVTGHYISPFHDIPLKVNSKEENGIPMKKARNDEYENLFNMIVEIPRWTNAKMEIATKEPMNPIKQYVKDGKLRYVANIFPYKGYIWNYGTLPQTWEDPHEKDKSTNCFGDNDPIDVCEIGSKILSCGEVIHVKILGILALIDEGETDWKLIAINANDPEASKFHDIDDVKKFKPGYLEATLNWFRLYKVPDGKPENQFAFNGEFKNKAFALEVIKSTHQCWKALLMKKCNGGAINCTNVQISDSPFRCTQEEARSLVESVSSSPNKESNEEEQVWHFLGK
# UniProt Q06203, whole entry, looked up: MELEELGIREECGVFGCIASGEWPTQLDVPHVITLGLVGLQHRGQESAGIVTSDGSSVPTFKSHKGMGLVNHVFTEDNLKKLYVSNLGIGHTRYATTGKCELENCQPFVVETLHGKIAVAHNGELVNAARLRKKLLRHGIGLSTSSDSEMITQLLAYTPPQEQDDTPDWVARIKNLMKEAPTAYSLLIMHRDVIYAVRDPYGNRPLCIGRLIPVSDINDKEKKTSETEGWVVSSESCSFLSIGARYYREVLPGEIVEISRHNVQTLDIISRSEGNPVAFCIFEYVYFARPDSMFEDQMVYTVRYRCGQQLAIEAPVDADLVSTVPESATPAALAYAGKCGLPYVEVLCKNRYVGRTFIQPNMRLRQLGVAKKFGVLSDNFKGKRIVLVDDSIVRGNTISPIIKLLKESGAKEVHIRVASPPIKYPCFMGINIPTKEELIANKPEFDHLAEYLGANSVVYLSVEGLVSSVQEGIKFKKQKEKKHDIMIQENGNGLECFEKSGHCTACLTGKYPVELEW
# UniProt Q9Y244: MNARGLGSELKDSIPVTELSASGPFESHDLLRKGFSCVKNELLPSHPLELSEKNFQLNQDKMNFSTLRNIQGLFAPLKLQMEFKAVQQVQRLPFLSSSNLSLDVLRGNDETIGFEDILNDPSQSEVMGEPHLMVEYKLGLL
# UniProt Q99575: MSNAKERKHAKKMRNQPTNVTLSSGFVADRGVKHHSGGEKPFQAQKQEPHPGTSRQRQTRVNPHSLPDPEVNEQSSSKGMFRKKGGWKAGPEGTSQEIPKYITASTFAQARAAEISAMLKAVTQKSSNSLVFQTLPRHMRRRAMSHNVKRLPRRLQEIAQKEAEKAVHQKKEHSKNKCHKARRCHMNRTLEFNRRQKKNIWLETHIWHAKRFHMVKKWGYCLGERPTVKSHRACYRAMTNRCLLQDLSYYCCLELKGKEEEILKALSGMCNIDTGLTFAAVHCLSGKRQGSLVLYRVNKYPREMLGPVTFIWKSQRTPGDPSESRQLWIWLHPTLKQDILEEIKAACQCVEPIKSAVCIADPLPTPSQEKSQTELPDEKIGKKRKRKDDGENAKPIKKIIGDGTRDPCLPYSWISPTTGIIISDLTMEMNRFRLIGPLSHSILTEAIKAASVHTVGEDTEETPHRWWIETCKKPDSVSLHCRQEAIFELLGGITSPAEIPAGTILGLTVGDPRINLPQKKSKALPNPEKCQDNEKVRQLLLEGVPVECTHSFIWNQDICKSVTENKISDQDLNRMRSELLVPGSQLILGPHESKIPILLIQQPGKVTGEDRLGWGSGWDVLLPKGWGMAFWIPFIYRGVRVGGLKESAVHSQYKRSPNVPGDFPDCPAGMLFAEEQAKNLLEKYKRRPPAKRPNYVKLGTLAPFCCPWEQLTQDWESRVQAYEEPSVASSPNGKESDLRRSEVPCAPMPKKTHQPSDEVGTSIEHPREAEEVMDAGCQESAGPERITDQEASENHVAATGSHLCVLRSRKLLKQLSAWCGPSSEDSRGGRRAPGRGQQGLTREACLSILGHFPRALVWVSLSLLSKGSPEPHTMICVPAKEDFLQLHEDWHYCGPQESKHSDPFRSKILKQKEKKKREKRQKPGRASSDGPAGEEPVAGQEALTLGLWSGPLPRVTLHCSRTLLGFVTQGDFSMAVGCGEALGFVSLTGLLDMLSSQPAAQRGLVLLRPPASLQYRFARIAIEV
# UniProt Q68D20: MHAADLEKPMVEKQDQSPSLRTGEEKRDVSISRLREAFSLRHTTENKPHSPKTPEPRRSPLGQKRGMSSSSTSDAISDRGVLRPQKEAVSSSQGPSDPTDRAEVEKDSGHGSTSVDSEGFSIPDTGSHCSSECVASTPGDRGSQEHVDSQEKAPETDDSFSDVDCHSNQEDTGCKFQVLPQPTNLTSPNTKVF
# UniProt O15160, whole entry, looked up: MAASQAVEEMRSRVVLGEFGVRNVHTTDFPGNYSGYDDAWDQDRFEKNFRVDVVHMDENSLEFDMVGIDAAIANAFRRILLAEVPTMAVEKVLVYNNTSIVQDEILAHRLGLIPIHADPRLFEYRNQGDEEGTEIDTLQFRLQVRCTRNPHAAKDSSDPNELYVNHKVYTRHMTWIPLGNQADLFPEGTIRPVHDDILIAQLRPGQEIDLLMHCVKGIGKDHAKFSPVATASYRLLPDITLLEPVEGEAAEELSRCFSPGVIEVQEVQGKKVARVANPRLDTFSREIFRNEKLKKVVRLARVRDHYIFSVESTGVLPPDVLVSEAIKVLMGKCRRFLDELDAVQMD
# UniProt P62937, whole entry, looked up: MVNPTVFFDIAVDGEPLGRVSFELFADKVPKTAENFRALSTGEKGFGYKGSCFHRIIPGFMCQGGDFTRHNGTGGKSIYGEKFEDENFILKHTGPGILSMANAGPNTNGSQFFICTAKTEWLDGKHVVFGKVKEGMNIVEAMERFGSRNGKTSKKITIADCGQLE
# UniProt O15305: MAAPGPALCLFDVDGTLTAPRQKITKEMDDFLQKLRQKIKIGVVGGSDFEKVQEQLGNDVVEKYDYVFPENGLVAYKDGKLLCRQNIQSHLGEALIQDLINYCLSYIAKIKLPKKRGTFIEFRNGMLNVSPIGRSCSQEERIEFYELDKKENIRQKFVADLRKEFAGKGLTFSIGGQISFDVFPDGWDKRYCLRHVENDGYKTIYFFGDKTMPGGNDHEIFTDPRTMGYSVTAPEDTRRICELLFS
# This is one part of the list.
# Compound: C1=CC=C(C=C1)[C@H](COC2=CC3=C(C=C2)NC(=O)N3)NC(=O)C4=CC=CN(C4=O)CC5=CC(=C(C=C5)F)F
# Test: log2 fold change, soluble protein after heating vs DMSO (PISA); higher = thermal stabilisation; K562 lysate, 10 uM; active = over 0.2 and 3.5 SD of the protein, either way, in both replicates (recomputed)
# Summary of the method: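 A 30 min treatment with 10 μM compound was applied to crude K562 extract at 1 mg/mL protein in PBS pH 7.4 with 1 mM MgCl2. Heating for 3 min spanned 48°C-58°C, after which aliquots were pooled, adjusted to 0.5% NP-40 at 4°C and spun at 21,000xg for 90 min. TMTpro 16plex LC-MS/MS of the supernatant, with channel sums equalised, gave values recorded as log-two fold change in thermal stability against solvent controls, from duplicates.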
row,Target,log2 fold change
1,PON2 (UniProt Q15165),inactive: 0.046
2,"POLR2A, A0A590UJN4",inactive: -0.004
3,POP7 (UniProt O75817),inactive: 0.008
4,PMF1 (UniProt Q6P1K2),inactive: 0.147
5,POLK (UniProt Q9UBT6),inactive: -0.07
6,PNPLA6 (UniProt Q8IY17),inactive: 0.015
7,PLOD1 (UniProt Q02809),inactive: 0
8,POLG2 (UniProt J3KRM2),inactive: 0.161
9,POGLUT1 (UniProt Q8NBL1),inactive: 0.031
10,PLP2 (UniProt Q04941),inactive: -0.026
11,PLOD2 isoform 2 (UniProt O00469),inactive: -0.189
12,PLRG1 (UniProt O43660),inactive: 0.057
13,PNO1 (UniProt Q9NRX1),inactive: -0.02
14,PPA2 (UniProt Q9H2U2),inactive: 0.006
15,PPAT (UniProt Q06203),inactive: 0.015
16,POMP (UniProt Q9Y244),inactive: 0.077
17,POP1 (UniProt Q99575),inactive: -0.015
18,POFUT1 (UniProt Q9H488),inactive: 0.056
19,PMS2CL (UniProt Q68D20),inactive: 0

row,Target,log2 fold change
1,POLA1 (UniProt P09884),inactive: 0.006
2,PNKD isoform 2 (UniProt Q8N490),inactive: 0.03
3,POMK (UniProt Q9H5K3),inactive: -0.051
4,PNPO (UniProt Q9NVS9),inactive: 0
5,POLR1C (UniProt O15160),inactive: -0.01
6,PM20D2 (UniProt Q8IYS1),inactive: 0.232
7,PLGRKT (UniProt Q9HBL7),inactive: 0.022
8,POLRMT (UniProt O00411),inactive: -0.076
9,PLK1 (UniProt P53350),inactive: 0.033
10,POU2F1 isoform 6 (UniProt P14859),inactive: 0.009
11,POLR2E (UniProt P19388),inactive: 0.015
12,POLR2F (UniProt P61218),inactive: 0.013
13,PPCS (UniProt Q9HAB8),inactive: -0.008
14,POLR2G (UniProt P62487),inactive: 0.018
15,POLE4 (UniProt Q9NR33),inactive: -0.084
16,PPIA isoform 2 (UniProt P62937),inactive: 0.034
17,PMM2 (UniProt O15305),inactive: -0.008
18,POLA2 (UniProt Q14181),inactive: 0.01
19,POLG (UniProt P54098),inactive: -0.127

# Some of the entries so far, as tab-separated lines.
row	Target	log2 fold change
3	POMK (UniProt Q9H5K3)	inactive: -0.051
4	PNPO (UniProt Q9NVS9)	inactive: 0
5	POLR1C (UniProt O15160)	inactive: -0.01
6	PM20D2 (UniProt Q8IYS1)	inactive: 0.232
7	PLGRKT (UniProt Q9HBL7)	inactive: 0.022
8	POLRMT (UniProt O00411)	inactive: -0.076
9	PLK1 (UniProt P53350)	inactive: 0.033
